Data taken from paper PMC7083883, “The cryo-EM structure of the SNX–BAR Mvp1 tetramer” (Nature Communications, 2020).
No constants are given. Whether binding was seen depends on the method and setting. Some results given as binding are weak or reduced against the parent protein; the word gives no strength.

Columns and labels:
[1] = molecular target: Full-length Mvp1 (codons 1-511) (S. cerevisiae) (UniProt P40959); assay: cryo-EM structure; single-particle cryo-EM, ~5 uM protein on Quantifoil grids, Titan Krios 300 kV, D2 symmetry imposed, 4.2 Å map; no lipid or lipid headgroups; both purified
[2] = molecular target: Full-length Mvp1 (codons 1-511) (S. cerevisiae) (UniProt P40959); assay: SEC-MALS; Mvp1 tetramers incubated with the PI3P headgroup or DiC8 PI3P; data not shown; both purified

binding [1]: binds
binding [2]: binds
B1: Full-length Mvp1 (codons 1-511) (natural protein, S. cerevisiae, UniProt P40959 1-511, looked up)
chain: MDNYEGSDPWNTSSNAWTKDDDHVVSTTNSEPSLNGISGEFNTLNFSTPLDTNEEDTGFLPTNDVLEESIWDDSRNPLGATGMSQTPNIAANETVIDKNDARDQNIEESEADLLDWTNNVRKTYRPLDADIIIIEEIPEREGLLFKHANYLVKHLIALPSTSPSEERTVVRRYSDFLWLREILLKRYPFRMIPELPPKRIGSQNADQLFLKKRRIGLSRFINLVMKHPKLSNDDLVLTFLTVRTDLTSWRKQATYDTSNEFADKKISQEFMKMWKKEFAEQWNQAASCIDTSMELWYRITLLLERHEKRIMQMVHERNFFETLVDNFSEVTPKLYPVQQNDTILDINNNLSIIKKHLETTSSICKQETEEISGTLSPKFKIFTDILLSLRSLFERYKIMAANNVVELQRHVELNKEKLESMKGKPDVSGAEYDRIKKIIQKDRRSIIEQSNRAWLIRQCILEEFTIFQETQFLITRAFQDWAKLNSNHAGLKLNEWEKLVTSIMDMPISRE
notes: Mvp1, S. cerevisiae sorting nexin with PX and BAR domains, codons 1-511, amplified from genomic DNA of W303A/alpha diploids; Two purification strategies: N-terminal His6 fusion with thrombin site (no cleavage described) or C-terminal MBP fusion cleaved with PreScission; also called wild type; SNX-BAR Mvp1; source: E. coli BL21-Codon Plus(DE3)-RIPL, purified (Ni-IDA or amylose resin, anion …)
